The results in this text go back to article PMC9974482.

Results are given in words; binding and its absence hold for the method and conditions named.

This assay deals with Acinetobacter baumannii PBP2 (aa 53 to 672), truncated soluble form (Acinetobacter baumannii ATCC 19606) (UniProt D0C8Z9). The experiment in a line: crystal structure; His6-PBP2 (53-672) crystallised alone at 18 °C, pH 4.2; two macromolecules in the asymmetric unit, space group I222; interfaces analysed in PISA; both purified.

B1: Acinetobacter baumannii PBP2 (aa 53 to 672), truncated soluble form (domain or fragment, UniProt D0C8Z9 53-672)
chain: ASDKNRIRLQPLPPARGYIYDRNGVLLADNYPVFTATLSKADVENVDTVIEQLQPILELTQEDVDRFKSRIKTARKTERVAIKLNLTETNIAKFSEVKYKFPGVRIETQMTRYYPHGDLFAHVIGYVGRINDKELKSIDKDLYAGTNLIGKIGVEKSYEDLLHGTPGYESVEADAHSNILRHLGRKDPTRGNDLYLSLDYGLQVVASQQLAGRRGAIVAIDPRTGEILALVSSPSFNPNLFVTGINHKDYSSLRDNIDQPLYNRAVQGVYPPGSTIKPMEAMGGLHYGIVDWATAISDPGYFHLPGDSHKFRDWKKTGHGIVNMHKAIIMSCDTYFYILANQMGIDQMNQWMRQFGFGQKTGVDLPSESEGLYPNPEWKMRTRKSKWMKGETISVSIGQGAFTATPLQLAMATAITANHGSHVVPHVLRATHGAKPFTVRNAPDGKINFNGTDEDWVKMREAMIDVIQSGTGRGIRTPLYQIAGKTGTAQVKSIAQGKRYNEAALSERQLDHGLFVGFAPADKPEIAIAVIWENGRHGGSAAQLAKPVFDYWLLTRKKNPIRPANHQVNGGLMTAGIKPGELPSGNESASSTPATSAPTSAAASTPQATPTRPATNEVDE
Turning to B1, the binding result is recorded as “no binding”.
